Assay results reported in the supplement of paper PMC10849652.
Some of the results follow.

Protein sequences, listed by entry. Tags and fused reporters are not part of them. Lines headed by an entry give the natural chain unless they say otherwise; changes in a name come on top.
UniProt Q9Y3F4: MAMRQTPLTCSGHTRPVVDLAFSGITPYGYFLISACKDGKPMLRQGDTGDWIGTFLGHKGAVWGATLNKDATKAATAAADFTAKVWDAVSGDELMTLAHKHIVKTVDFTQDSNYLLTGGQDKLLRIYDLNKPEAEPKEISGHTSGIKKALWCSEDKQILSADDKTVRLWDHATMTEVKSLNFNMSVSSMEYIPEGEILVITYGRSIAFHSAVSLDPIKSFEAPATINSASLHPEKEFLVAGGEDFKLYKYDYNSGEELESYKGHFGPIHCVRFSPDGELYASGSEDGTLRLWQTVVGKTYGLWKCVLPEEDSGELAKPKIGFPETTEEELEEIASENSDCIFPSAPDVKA
UniProt Q92804: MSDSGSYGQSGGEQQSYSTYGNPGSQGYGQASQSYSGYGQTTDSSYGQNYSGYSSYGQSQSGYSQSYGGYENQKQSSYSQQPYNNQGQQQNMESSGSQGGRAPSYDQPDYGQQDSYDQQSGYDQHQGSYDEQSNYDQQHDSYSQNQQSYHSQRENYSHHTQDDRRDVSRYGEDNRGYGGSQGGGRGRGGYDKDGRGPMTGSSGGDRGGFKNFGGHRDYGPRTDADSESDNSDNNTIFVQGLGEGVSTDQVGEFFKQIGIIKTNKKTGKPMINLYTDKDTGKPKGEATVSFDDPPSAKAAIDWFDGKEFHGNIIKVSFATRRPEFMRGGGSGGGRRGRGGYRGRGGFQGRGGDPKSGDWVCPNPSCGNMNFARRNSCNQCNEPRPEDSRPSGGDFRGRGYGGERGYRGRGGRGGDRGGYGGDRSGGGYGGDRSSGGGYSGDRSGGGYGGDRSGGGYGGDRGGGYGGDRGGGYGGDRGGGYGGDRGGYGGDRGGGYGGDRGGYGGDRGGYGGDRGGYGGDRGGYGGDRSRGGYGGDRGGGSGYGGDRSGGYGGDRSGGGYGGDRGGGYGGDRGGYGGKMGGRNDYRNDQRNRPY
UniProt P17542, whole entry, looked up: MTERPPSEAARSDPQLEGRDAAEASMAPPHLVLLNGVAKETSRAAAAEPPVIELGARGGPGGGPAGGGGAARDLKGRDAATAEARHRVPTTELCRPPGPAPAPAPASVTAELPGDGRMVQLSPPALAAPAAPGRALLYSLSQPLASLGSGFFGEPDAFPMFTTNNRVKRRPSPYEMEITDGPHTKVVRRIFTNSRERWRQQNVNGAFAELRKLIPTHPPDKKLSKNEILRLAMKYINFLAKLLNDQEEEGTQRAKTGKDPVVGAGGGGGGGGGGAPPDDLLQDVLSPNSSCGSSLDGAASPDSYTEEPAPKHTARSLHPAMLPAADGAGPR
UniProt Q7Z7C8, whole entry, looked up: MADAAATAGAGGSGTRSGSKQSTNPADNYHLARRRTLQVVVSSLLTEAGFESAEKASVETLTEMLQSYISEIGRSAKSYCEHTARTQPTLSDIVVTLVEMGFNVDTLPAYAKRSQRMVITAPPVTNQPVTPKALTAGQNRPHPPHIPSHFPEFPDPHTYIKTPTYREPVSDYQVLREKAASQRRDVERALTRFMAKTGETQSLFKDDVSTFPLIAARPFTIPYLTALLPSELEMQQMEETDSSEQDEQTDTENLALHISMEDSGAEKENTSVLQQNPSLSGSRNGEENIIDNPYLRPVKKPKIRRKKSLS
UniProt Q9NVG8: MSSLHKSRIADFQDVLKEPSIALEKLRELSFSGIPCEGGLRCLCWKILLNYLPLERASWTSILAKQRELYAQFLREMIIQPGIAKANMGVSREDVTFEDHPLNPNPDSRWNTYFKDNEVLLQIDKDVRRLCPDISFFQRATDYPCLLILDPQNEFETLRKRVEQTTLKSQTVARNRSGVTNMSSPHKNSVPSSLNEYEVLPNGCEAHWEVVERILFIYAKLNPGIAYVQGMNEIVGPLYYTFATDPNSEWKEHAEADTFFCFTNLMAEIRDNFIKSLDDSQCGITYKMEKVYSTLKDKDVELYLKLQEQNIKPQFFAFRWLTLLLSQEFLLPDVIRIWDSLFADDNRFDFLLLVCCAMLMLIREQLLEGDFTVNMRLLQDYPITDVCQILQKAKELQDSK
UniProt Q13190: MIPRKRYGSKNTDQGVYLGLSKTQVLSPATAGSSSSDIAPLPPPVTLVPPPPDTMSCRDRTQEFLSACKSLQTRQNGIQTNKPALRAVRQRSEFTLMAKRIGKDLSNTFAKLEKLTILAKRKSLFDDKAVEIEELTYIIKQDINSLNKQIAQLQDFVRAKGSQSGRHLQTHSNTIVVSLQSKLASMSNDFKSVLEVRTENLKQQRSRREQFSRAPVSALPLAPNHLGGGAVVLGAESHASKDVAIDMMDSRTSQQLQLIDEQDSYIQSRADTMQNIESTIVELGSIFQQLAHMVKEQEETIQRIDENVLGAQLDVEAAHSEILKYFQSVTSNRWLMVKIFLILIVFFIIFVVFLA
UniProt O43760: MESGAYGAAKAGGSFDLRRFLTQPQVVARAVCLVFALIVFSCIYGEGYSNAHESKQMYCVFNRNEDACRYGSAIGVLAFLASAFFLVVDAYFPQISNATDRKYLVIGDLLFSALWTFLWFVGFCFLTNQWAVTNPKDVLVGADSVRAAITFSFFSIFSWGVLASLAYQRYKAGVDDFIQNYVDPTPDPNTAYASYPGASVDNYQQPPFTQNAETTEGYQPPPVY
UniProt Q8NHG7: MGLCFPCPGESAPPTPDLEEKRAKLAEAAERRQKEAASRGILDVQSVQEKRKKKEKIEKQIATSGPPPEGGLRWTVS
UniProt Q9UNE7: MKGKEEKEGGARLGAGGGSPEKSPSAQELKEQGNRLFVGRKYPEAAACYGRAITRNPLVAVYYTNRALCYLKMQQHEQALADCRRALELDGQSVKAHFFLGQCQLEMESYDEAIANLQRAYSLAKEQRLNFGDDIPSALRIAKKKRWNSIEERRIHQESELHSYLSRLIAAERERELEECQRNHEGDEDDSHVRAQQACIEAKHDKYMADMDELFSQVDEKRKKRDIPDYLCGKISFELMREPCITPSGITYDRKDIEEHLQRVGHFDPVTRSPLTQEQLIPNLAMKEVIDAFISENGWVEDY
UniProt Q15527: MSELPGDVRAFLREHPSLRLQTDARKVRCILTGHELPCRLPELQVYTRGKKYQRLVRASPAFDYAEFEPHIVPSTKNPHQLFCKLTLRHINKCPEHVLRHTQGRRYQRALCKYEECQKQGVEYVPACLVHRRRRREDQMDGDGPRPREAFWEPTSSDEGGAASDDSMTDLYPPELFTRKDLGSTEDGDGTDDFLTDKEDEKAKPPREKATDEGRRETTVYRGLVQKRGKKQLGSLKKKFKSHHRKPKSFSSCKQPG
UniProt Q6P1X5, whole entry, looked up: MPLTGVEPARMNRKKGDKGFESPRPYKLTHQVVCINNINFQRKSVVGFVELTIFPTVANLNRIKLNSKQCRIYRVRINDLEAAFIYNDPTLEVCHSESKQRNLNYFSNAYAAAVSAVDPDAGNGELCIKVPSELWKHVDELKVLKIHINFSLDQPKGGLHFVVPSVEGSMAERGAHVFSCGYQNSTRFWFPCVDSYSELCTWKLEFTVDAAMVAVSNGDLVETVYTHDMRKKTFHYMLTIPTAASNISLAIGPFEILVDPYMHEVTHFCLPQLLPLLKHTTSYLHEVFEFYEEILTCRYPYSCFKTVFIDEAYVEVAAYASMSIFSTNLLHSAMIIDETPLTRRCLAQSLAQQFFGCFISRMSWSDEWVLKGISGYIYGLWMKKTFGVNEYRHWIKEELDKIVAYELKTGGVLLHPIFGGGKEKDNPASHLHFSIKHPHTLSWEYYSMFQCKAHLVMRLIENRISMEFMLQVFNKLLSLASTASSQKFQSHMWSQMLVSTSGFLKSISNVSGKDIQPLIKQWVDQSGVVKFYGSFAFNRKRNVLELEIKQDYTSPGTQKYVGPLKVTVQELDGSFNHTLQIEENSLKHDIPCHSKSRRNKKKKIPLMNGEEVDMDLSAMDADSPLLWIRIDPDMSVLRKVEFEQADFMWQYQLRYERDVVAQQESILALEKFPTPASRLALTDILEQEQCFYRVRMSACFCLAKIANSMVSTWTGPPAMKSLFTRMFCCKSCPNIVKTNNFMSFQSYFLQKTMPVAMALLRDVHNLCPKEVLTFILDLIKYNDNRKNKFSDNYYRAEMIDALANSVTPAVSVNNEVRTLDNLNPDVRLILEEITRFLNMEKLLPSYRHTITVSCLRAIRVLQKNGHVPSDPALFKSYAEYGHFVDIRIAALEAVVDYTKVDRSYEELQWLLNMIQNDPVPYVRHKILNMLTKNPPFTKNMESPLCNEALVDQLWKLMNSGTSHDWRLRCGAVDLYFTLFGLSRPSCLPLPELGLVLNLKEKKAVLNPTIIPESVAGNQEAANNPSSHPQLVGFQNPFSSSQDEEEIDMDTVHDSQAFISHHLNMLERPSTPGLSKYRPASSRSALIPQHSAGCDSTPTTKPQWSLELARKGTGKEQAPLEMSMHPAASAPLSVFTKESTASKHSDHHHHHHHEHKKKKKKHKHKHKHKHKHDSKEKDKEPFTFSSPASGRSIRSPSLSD
UniProt Q9H2K8: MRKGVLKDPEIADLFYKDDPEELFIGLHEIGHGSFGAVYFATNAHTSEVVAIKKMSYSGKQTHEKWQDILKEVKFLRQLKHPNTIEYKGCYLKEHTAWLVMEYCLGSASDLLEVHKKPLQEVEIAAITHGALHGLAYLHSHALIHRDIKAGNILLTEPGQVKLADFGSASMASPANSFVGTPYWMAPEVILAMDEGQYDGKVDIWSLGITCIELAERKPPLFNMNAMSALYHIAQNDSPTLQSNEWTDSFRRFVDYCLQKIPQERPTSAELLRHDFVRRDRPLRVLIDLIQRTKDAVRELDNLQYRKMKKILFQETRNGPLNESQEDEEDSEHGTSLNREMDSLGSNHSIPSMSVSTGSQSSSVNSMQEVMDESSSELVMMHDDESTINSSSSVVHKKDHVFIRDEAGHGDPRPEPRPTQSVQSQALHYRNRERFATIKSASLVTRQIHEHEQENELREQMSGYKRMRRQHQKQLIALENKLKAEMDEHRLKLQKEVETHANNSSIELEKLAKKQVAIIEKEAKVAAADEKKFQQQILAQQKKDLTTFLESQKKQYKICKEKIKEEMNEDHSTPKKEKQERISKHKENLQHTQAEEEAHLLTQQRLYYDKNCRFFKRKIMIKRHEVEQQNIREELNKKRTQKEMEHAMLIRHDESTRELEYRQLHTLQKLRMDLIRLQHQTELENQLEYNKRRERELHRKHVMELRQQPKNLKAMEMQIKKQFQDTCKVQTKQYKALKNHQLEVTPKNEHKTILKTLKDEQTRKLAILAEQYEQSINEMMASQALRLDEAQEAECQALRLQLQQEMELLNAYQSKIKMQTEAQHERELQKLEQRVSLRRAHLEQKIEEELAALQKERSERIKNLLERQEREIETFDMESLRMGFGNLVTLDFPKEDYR
UniProt O15400: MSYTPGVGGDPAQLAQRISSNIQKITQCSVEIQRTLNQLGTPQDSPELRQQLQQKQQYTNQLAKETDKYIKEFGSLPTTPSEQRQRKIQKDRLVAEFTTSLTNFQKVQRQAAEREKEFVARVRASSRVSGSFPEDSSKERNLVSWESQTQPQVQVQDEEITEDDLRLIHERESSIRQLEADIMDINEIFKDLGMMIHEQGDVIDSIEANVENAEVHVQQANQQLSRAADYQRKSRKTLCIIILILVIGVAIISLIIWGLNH
UniProt O60506: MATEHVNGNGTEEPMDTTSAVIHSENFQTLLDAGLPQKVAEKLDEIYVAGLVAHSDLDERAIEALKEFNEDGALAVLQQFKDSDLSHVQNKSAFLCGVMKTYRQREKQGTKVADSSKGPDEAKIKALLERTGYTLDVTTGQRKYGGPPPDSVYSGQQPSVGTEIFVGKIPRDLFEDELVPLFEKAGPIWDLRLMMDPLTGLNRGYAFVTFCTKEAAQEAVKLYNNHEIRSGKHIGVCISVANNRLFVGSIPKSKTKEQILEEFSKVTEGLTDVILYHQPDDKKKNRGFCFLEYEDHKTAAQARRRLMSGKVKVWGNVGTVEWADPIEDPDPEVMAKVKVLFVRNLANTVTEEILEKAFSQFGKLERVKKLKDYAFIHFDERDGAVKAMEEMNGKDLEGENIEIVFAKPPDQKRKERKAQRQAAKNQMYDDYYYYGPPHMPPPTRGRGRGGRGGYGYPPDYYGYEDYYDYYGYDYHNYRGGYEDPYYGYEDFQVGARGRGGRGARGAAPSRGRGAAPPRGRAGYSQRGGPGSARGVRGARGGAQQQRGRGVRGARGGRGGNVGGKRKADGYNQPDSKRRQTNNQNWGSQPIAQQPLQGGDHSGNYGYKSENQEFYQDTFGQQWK

How the values were obtained:
Test in all cases: log2 fold change, soluble protein after heating vs DMSO (PISA); higher = thermal stabilisation; K562 cells, 10 uM, 30 min; active = over 0.2 and 3.5 SD of the protein, either way, in both replicates (recomputed)
[1] = compound: COC1=CC=C(C=C1)CN2C=CC3=C2C=C(C=C3)C(=O)NO
Procedure, shortened: (§1)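 For each measurement, 10 μM compound was applied for 30 min to K562 cells at 2×10^6 cells/mL. Aliquots were heated for 3 min across 48°C-58°C, pooled, and extracted in PBS with 0.5% NP-40 at 4°C; the supernatant after 21,000xg for 90 min was soluble protein. This was quantified by TMTpro 16plex LC-MS/MS with channel sums equalised, and thermal stability was reported relative to control samples from duplicates, on a log2 fold-change scale.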

filanesib = compound: CON(C)C(=O)N1N=C(c2cc(F)ccc2F)S[C@@]1(CCCN)c1ccccc1 [filanesib]
Procedure, shortened: as §1

zotarolimus = compound: CO[C@H]1C[C@@H]2CC[C@@H](C)[C@@](O)(O2)C(=O)C(=O)N2CCCC[C@H]2C(=O)O[C@H]([C@H](C)C[C@@H]2CC[C@H](n3cnnn3)[C@H](OC)C2)CC(=O)[C@H](C)/C=C(\C)[C@@H](O)[C@@H](OC)C(=O)[C@H](C)C[C@H](C)/C=C/C=C/C=C/1C [zotarolimus]
Procedure, shortened: as §1

idasanutlin = compound: COc1cc(C(=O)O)ccc1NC(=O)[C@@H]1N[C@@H](CC(C)(C)C)[C@](C#N)(c2ccc(Cl)cc2F)[C@H]1c1cccc(Cl)c1F [idasanutlin]
Procedure, shortened: as §1

alisertib = compound: COc1cc(Nc2ncc3c(n2)-c2ccc(Cl)cc2C(c2c(F)cccc2OC)=NC3)ccc1C(=O)O [alisertib]
Procedure, shortened: as §1

[2] = compound: COc1cc2nc(-c3cc(F)ccc3O)nc(N[C@@H]3CNC[C@H]3C(C)(C)O)c2cc1OC
Procedure, shortened: as §1

gefitinib = compound: COc1cc2ncnc(Nc3ccc(F)c(Cl)c3)c2cc1OCCCN1CCOCC1 [gefitinib]
Procedure, shortened: as §1

[3] = compound: COc1cccc2cc(-c3nc([C@H]4CC[C@H](C(=O)O)CC4)n4ncnc(N)c34)[nH]c12
Procedure, shortened: as §1

lapatinib = compound: CS(=O)(=O)CCNCc1ccc(-c2ccc3ncnc(Nc4ccc(OCc5cccc(F)c5)c(Cl)c4)c3c2)o1 [lapatinib]
Procedure, shortened: as §1

pictilisib = compound: CS(=O)(=O)N1CCN(Cc2cc3nc(-c4cccc5[nH]ncc45)nc(N4CCOCC4)c3s2)CC1 [pictilisib]
Procedure, shortened: as §1

[4] = compound: CS(=O)(=O)c1ccc(-c2cnc(N)c(C(=O)Nc3ccccc3)n2)cc1
Procedure, shortened: as §1

crizotinib = compound: C[C@@H](Oc1cc(-c2cnn(C3CCNCC3)c2)cnc1N)c1c(Cl)ccc(F)c1Cl [crizotinib]
Procedure, shortened: as §1

[5] = compound: C[C@@H]1COCCN1C2=NC(=NC(=C2)C3(CC3)S(=O)(=O)C)C4=C5C=CNC5=CC=C4
Procedure, shortened: as §1

[6] = compound: C[C@H](C1=CC=C(C=C1)C(=O)NC2=C3C=CNC3=NC=C2)N
Procedure, shortened: as §1

duvelisib = compound: C[C@H](Nc1ncnc2nc[nH]c12)c1cc2cccc(Cl)c2c(=O)n1-c1ccccc1 [duvelisib]
Procedure, shortened: as §1

gandotinib = compound: Cc1cc(Nc2cc(CN3CCOCC3)c3nc(C)c(Cc4ccc(Cl)cc4F)n3n2)n[nH]1 [gandotinib]
Procedure, shortened: as §1

tozasertib = compound: Cc1cc(Nc2cc(N3CCN(C)CC3)nc(Sc3ccc(NC(=O)C4CC4)cc3)n2)n[nH]1 [tozasertib]
Procedure, shortened: as §1

[7] = compound: Cc1cc(SCc2sc(-c3ccc(C(F)(F)F)cc3)nc2C)ccc1OCC(=O)O
Procedure, shortened: as §1

doramapimod = compound: Cc1ccc(-n2nc(C(C)(C)C)cc2NC(=O)Nc2ccc(OCCN3CCOCC3)c3ccccc23)cc1 [doramapimod]
Procedure, shortened: as §1

ispinesib = compound: Cc1ccc(C(=O)N(CCCN)[C@@H](c2nc3cc(Cl)ccc3c(=O)n2Cc2ccccc2)C(C)C)cc1 [ispinesib]
Procedure, shortened: as §1

Measured: log2 fold change

STRAP isoform 2 (UniProt Q9Y3F4)
inactive: [1] -0.031 | filanesib 0.011 | zotarolimus -0.024 | idasanutlin -0.019 | alisertib -0.039 | [2] 0.022 | gefitinib -0.01 | [3] 0.04 | lapatinib -0.016 | pictilisib 0.031 | [4] -0.005 | crizotinib 0.052 | [5] 0.042 | [6] 0.036 | duvelisib 0.006 | gandotinib -0.01 | tozasertib -0.013 | [7] -0.021 | doramapimod 0.014 | ispinesib 0.003

TAF15 (UniProt Q92804)
inactive: [1] -0.02 | filanesib 0.165 | zotarolimus -0.051 | idasanutlin 0.109 | alisertib -0.064 | [2] -0.032 | gefitinib -0.063 | [3] 0.037 | lapatinib 0.004 | pictilisib -0.071 | [4] -0.059 | crizotinib 0.003 | [5] -0.116 | [6] 0.047 | duvelisib -0.078 | gandotinib 0.067 | tozasertib -0.008 | [7] -0.017 | doramapimod -0.013 | ispinesib 0.004

TAL1 (UniProt P17542)
inactive: [1] -0.02 | filanesib 0.033 | zotarolimus -0.078 | idasanutlin 0.034 | alisertib -0.042 | [2] 0.049 | gefitinib -0.004 | [3] 0.089 | lapatinib -0.001 | pictilisib -0.011 | [4] 0 | crizotinib 0.016 | [5] 0.072 | [6] -0.082 | duvelisib 0.02 | gandotinib 0.018 | tozasertib 0.028 | [7] 0 | doramapimod -0.001 | ispinesib -0.054

TAF8 isoform 2 (UniProt Q7Z7C8)
inactive: [1] -0.054 | filanesib -0.103 | zotarolimus -0.008 | idasanutlin -0.008 | alisertib -0.147 | [2] -0.054 | gefitinib 0.038 | [3] -0.016 | lapatinib 0.056 | pictilisib -0.018 | [4] -0.073 | crizotinib 0.01 | [5] 0.011 | [6] -0.01 | duvelisib -0.055 | gandotinib 0.041 | tozasertib 0.03 | [7] -0.04 | doramapimod -0.051 | ispinesib -0.015

TBC1D13 (UniProt Q9NVG8)
inactive: [1] 0.058 | filanesib 0.001 | zotarolimus 0.017 | idasanutlin -0.087 | alisertib -0.024 | [2] 0.021 | gefitinib -0.007 | [3] 0.064 | lapatinib -0.015 | pictilisib 0.079 | [4] 0.006 | crizotinib 0.036 | [5] 0.057 | [6] -0.047 | duvelisib 0.037 | gandotinib -0.019 | tozasertib -0.007 | [7] -0.019 | doramapimod -0.003 | ispinesib 0.055

STX5 (UniProt Q13190)
inactive: [1] 0.007 | filanesib 0.065 | zotarolimus 0.037 | idasanutlin -0.186 | alisertib -0.077 | [2] 0.117 | gefitinib 0.039 | [3] -0.13 | lapatinib 0.126 | pictilisib 0.033 | [4] 0.064 | crizotinib 0.007 | [5] 0.317 | [6] 0.142 | duvelisib -0.037 | gandotinib 0.03 | tozasertib -0.037 | [7] 0.036 | doramapimod 0.05 | ispinesib 0.009

SYNGR2 (UniProt O43760)
inactive: [1] -0.078 | filanesib 0.009 | zotarolimus -0.051 | idasanutlin 0.028 | alisertib -0.136 | [2] -0.009 | gefitinib 0.074 | [3] 0.099 | lapatinib 0.095 | pictilisib -0.002 | [4] -0.044 | crizotinib 0.132 | [5] 0.168 | [6] 0.021 | duvelisib 0.062 | gandotinib -0.047 | tozasertib -0.018 | [7] -0.163 | doramapimod 0.014 | ispinesib -0.005

SVIP (UniProt Q8NHG7)
inactive: [1] -0.04 | filanesib 0.064 | zotarolimus 0.043 | idasanutlin -0.02 | alisertib -0.038 | [2] 0.083 | gefitinib 0.031 | [3] 0.085 | lapatinib -0.1 | pictilisib 0.032 | [4] 0 | crizotinib 0.116 | [5] 0.174 | [6] -0.035 | gandotinib 0.055 | tozasertib -0.042 | doramapimod 0.03 | ispinesib 0.145

SUPT16H (UniProt Q9Y5B9)
inactive: [1] 0.106 | filanesib -0.026 | zotarolimus 0.104 | idasanutlin -0.057 | alisertib 0.12 | [2] -0.036 | gefitinib 0.062 | [3] -0.023 | lapatinib 0.035 | pictilisib 0.011 | [4] 0.138 | crizotinib -0.062 | [5] 0.251 | [6] -0.093 | gandotinib -0.024 | [7] 0.248 | doramapimod -0.047 | ispinesib 0.028

STUB1 (UniProt Q9UNE7)
inactive: [1] 0.038 | filanesib 0.216 | zotarolimus 0.071 | idasanutlin 0.086 | alisertib -0.074 | [2] 0.022 | gefitinib -0.125 | [3] -0.089 | lapatinib 0.019 | pictilisib 0.036 | [4] 0.067 | crizotinib -0.114 | [5] -0.198 | [6] 0.334 | duvelisib -0.094 | gandotinib -0.003 | tozasertib 0.078 | [7] 0.123 | doramapimod 0.106 | ispinesib -0.045

SURF2 (UniProt Q15527)
inactive: [1] 0.038 | filanesib 0.014 | zotarolimus 0.055 | idasanutlin 0.054 | alisertib -0.133 | [2] 0.023 | gefitinib 0.028 | [3] -0.034 | lapatinib 0.006 | pictilisib -0.07 | [4] -0.009 | crizotinib 0.084 | [5] -0.02 | [6] -0.118 | gandotinib 0 | [7] 0.04 | doramapimod -0.068 | ispinesib 0.038

TAF2 (UniProt Q6P1X5)
inactive: [1] -0.136 | filanesib 0.225 | zotarolimus 0.297 | idasanutlin 0.321 | alisertib -0.059 | [2] 0.287 | gefitinib 0.027 | [3] -0.159 | lapatinib -0.121 | pictilisib 0.239 | [4] -0.012 | crizotinib -0.047 | [5] 0.015 | [6] 0.068 | duvelisib 0.045 | gandotinib 0.104 | tozasertib -0.295 | [7] -0.04 | doramapimod 0.005 | ispinesib -0.063

Two consecutive entries already listed:
STUB1 (UniProt Q9UNE7)
inactive: [1] 0.038 | filanesib 0.216 | zotarolimus 0.071 | idasanutlin 0.086 | alisertib -0.074 | [2] 0.022 | gefitinib -0.125 | [3] -0.089 | lapatinib 0.019 | pictilisib 0.036 | [4] 0.067 | crizotinib -0.114 | [5] -0.198 | [6] 0.334 | duvelisib -0.094 | gandotinib -0.003 | tozasertib 0.078 | [7] 0.123 | doramapimod 0.106 | ispinesib -0.045

SURF2 (UniProt Q15527)
inactive: [1] 0.038 | filanesib 0.014 | zotarolimus 0.055 | idasanutlin 0.054 | alisertib -0.133 | [2] 0.023 | gefitinib 0.028 | [3] -0.034 | lapatinib 0.006 | pictilisib -0.07 | [4] -0.009 | crizotinib 0.084 | [5] -0.02 | [6] -0.118 | gandotinib 0 | [7] 0.04 | doramapimod -0.068 | ispinesib 0.038

(list continues)

TAOK3 (UniProt Q9H2K8)
inactive: [1] 0.047 | filanesib 0.014 | zotarolimus 0.002 | idasanutlin -0.003 | alisertib -0.038 | [2] -0.049 | gefitinib 0.001 | [3] -0.011 | lapatinib 0.061 | pictilisib -0.001 | [4] -0.051 | crizotinib -0.03 | [5] -0.008 | [6] -0.13 | gandotinib -0.08 | [7] 0.057 | doramapimod 0.023 | ispinesib 0.01

STX7 (UniProt O15400)
inactive: [1] 0.065 | filanesib -0.071 | zotarolimus 0.027 | idasanutlin -0.023 | alisertib -0.048 | [2] 0.013 | gefitinib -0.01 | [3] 0.045 | lapatinib -0.002 | pictilisib -0.118 | [4] 0 | crizotinib -0.187 | [5] 0.015 | [6] -0.042 | gandotinib -0.18 | [7] -0.055 | doramapimod 0.04
active: ispinesib -0.246

SYNCRIP isoform 3 (UniProt O60506)
inactive: [1] -0.203 | filanesib -0.125 | zotarolimus -0.022 | idasanutlin 0.053 | alisertib -0.067 | [2] -0.013 | gefitinib 0.007 | [3] -0.094 | lapatinib 0.03 | pictilisib -0.232 | [4] -0.038 | crizotinib 0 | [5] -0.291 | [6] 0.193 | duvelisib -0.004 | gandotinib 0.088 | tozasertib 0.105 | [7] -0.212 | doramapimod 0.052 | ispinesib -0.344
